# These are yes or no findings as the source states them, for the method shown. Some results given as binding are weak or reduced against the parent protein; the word gives no strength.
# Amino acid sequences for entries named in this document (tags omitted). Residues count along the entry.
# UniProt Q8N423, residues 22-597: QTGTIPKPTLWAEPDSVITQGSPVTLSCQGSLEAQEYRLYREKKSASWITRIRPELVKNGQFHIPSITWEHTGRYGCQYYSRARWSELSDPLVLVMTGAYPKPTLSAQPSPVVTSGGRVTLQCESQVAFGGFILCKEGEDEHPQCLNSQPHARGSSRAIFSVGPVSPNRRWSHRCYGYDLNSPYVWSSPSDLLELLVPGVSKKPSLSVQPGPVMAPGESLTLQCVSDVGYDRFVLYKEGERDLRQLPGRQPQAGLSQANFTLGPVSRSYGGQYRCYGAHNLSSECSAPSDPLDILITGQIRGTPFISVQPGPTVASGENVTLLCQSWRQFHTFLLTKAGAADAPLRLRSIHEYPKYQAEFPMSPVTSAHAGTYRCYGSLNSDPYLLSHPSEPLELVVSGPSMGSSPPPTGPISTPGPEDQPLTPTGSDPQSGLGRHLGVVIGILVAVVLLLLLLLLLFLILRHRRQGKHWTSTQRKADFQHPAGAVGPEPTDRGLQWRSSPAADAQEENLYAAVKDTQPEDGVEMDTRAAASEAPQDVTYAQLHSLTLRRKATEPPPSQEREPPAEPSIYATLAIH
# UniProt Q8NHL6, residues 24-458: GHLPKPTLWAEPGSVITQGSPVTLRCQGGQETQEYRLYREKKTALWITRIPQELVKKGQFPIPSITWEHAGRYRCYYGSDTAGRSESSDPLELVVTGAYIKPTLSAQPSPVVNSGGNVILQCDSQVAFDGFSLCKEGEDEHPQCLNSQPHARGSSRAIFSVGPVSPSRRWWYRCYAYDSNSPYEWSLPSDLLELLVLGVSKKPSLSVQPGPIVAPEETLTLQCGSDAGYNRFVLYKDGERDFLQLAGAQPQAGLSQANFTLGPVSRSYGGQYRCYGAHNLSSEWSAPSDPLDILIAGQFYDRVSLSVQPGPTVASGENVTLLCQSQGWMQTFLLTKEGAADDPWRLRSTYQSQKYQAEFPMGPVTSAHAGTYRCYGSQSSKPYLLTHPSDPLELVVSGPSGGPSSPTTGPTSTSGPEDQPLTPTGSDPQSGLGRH
# UniProt Q6PI73, residues 24-447: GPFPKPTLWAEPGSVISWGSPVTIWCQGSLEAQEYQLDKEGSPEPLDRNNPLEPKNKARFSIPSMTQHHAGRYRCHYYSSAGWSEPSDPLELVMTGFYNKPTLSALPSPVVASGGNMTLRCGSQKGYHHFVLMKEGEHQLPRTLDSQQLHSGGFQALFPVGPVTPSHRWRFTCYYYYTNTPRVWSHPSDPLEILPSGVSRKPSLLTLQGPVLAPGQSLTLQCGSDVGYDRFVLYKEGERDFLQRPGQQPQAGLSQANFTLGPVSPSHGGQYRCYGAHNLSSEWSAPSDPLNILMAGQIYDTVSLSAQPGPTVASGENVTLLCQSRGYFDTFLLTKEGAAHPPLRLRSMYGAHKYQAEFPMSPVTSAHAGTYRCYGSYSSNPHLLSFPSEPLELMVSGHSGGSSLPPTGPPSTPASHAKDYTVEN
# UniProt Q8N6C8, residues 24-439: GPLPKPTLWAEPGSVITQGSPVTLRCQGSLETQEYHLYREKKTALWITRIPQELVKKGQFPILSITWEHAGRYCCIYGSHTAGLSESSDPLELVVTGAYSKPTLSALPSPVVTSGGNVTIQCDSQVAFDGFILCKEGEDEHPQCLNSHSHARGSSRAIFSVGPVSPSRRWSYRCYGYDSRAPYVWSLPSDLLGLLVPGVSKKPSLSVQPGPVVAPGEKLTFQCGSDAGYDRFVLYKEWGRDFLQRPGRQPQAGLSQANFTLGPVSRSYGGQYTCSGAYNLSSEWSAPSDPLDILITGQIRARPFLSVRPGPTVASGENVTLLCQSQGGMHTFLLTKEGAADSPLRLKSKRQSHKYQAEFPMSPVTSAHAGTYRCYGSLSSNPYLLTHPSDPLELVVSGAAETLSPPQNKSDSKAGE
# UniProt Q8N149, residues 24-449: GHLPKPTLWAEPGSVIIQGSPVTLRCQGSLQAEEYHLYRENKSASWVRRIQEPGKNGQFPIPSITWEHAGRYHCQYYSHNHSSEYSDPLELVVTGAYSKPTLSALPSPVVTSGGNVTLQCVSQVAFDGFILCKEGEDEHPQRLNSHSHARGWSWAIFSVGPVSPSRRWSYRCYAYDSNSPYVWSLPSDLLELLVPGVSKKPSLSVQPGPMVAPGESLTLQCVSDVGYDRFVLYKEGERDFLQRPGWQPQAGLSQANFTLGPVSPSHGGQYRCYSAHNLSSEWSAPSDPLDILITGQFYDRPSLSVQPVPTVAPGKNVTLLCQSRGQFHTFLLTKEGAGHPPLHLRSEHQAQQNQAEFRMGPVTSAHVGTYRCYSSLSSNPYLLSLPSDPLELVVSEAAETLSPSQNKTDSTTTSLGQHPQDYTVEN
# UniProt P59901, residues 24-446: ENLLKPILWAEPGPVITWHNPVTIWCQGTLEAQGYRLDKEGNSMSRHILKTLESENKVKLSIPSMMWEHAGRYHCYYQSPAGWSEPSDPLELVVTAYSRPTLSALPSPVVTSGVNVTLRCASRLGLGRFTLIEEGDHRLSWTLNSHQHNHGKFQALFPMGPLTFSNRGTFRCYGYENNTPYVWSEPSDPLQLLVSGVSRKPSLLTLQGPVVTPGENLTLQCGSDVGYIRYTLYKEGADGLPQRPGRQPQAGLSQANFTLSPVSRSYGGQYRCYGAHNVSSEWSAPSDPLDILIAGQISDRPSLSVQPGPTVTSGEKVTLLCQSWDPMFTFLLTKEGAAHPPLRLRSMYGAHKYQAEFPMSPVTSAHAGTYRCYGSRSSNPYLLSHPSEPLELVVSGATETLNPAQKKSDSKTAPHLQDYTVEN
# How the values were obtained:
# [1] = target: human LILRB2 on CHOK1-human LILRB2 cell line (human) (UniProt Q8N423); assay: flow cytometry on CHOK1-human LILRB2 cells (FIGS. 4F-4G)
# [2] = target: human LILRB2 on CHOK1-human LILRB2 cell line (human) (UniProt Q8N423); assay: flow cytometry on CHOK1-human LILRB2 cell line (FIGS. 4F-4G)
# [3] = target: human LILRB1 protein (wild type) (human) (UniProt Q8NHL6); assay: Octet, dissociation rate ranking
# [4] = target: human LILRB2 on CHOK1-human LILRB2 cell line (human) (UniProt Q8N423); assay: flow cytometry on human LILRB2 cells (FIG. 5C)
# [5] = target: human LILRB2 on CHOK1-human LILRB2 cell line (human) (UniProt Q8N423); assay: flow cytometry (FIG. 5C)
# [6] = target: human LILRB1 protein (wild type) (human) (UniProt Q8NHL6); assay: ELISA (FIG. 12A)
# human LILRA6 (human) = human LILRA6 (human) (UniProt Q6PI73); assay: ELISA, OD450, antibody at 200 nM; + = 2-fold over ISO
# human LILRA3 (human) = human LILRA3 (human) (UniProt Q8N6C8); assay: as above
# human LILRA2 (human) = human LILRA2 (human) (UniProt Q8N149); assay: as above
# human LILRA4 (human) = human LILRA4 (human) (UniProt P59901); assay: as above
binder,measurement,setting,value
"LK-RB2-2.h2 (antibody, human IgG4, kappa, V domains shown) VH: EVQLVESGGGLVKPGGSLRLSCAASGFTFSSYAMSWVRQAPGKGLEWVSYISSGGDYFHYADTVKGRFTISRDNAKNSLYLQMNSLRAEDTAVYYCAREGAHYDSSYLAWFAHWGQGTLVTVSS VL: DIQMTQSPSSVSASVGDRVTITCRASENIYSNLAWYQQKPGKAPKLLVYAATNLAEGVPSRFSGSGSGTDYTLTISSLQPEDFATYYCQQFWDNPLTFGQGTKLEIKR",binding,[1],binds
same,binding,[2],binds
"LK-RB2-2.h3 (antibody, human IgG4, kappa, V domains shown) VH: EVQLVESGGGLVKPGGSLRLSCAASGFTFSSYAMSWVRQAPGKGLEWVAYISSGGDYFHYADTVKGRFTISRDNAKNSLYLQMNSLRAEDTAVYYCTREGAHYDSSYLAWFAHWGQGTLVTVSS VL: DIQMTQSPSSVSASVGDRVTITCRASENIYSNLAWYQQKPGKAPKLLIYAATNLAEGVPSRFSGSGSGTDYTLTISSLQPEDFATYYCQQFWDNPLTFGQGTKLEIKR",binding,[1],binds
same,binding,[2],binds
"LK-RB2-24.h1 (antibody, human IgG4, kappa, V domains shown) VH: QVQLVQSGSELKKPGASVKVSCKASGYTFTTYGMSWVKQAPGQGLKWMGWLNIYSGVPAYADDFKGRFVFSLDTSASTAYLQISSLKAEDTAVYFCARRENYDGYGMDYWGQGTLVTVSS VL: EIVLTQSPATLSLSPGERATLSCRASQSISDYLHWYQQKPGQAPRLLIKYASQSISGIPARFSGSGSGTDFTLTISSLEPEDFAVYYCQNGHSFPYTFGGGTKLEIKR",binding,[1],binds
same,binding,[2],binds
"LK-RB2-24.h2 (antibody, human IgG4, kappa, V domains shown) VH: QVQLVQSGSELKKPGASVKVSCKASGYTFTTYGMSWVKQAPGQGLKWMGWLNIYSGVPAYADDFKGRFVFSLDTSASTAYLQISSLKAEDTAVYFCARRENYDGYGMDYWGQGTLVTVSS VL: EIVLTQSPATLSLSPGERATLSCRASQSISDYLHWYQQKPGQAPRLLIKYASQSISGIPSRFSGSGSGTDFTLTISSLEPEDFAVYYCQNGHSFPYTFGGGTKLEIKR",binding,[1],binds
same,binding,[2],binds
"LK-RB2-24.h3 (antibody, human IgG4, kappa, V domains shown) VH: QVQLVQSGSELKKPGASVKVSCKASGYTFTTYGMSWVKQAPGQGLKWMGWLNIYSGVPAYADDFKGRFVFSLDTSASTAYLQISSLKAEDTAVYFCARRENYDGYGMDYWGQGTLVTVSS VL: EIVLTQSPATLSLSPGERATLSCRASQSISDYLHWYQQKPGQAPRLLIKYASQSISGIPSRFSGSGSGTDFTLTISSLEPEDVAVYYCQNGHSFPYTFGGGTKLEIKR",binding,[1],binds
same,binding,[2],binds
"LK-RB2-2 (antibody, human IgG4 S228P, kappa, V domains shown) VH: DVKLEESGEGLVKPGGSLKLSCAASGFTFSSYAMSWVRQTPEKRLEWVAYISSGGDYFHYADTVKGRFTISRDNARNTLYLQMSSLKSEDTAMYYCTREGAHYDSSYLAWFAHWGQGTLVTVSA VL: DIQMTQSPASLSVSVGETVTITCRASENIYSNLAWYQQRQGKSPQLLVYAATNLADGVPSRFSGSGSGTQYSLKINSLQSEDFGSYYCQQFWDNPLTFGAGTKLELKR",binding,[1],binds
"LK-RB2-24 (antibody, human IgG4 S228P, kappa, V domains shown) VH: QIQLVQSGPEVKKPGETVKISCKASGYTFTTYGMSWVKQAPGKGLKWMGWLNIYSGVPAYADDFKGRFAFSLESSASTAYLQINNLKNEDTATYFCARRENYDGYGMDYWGQGTSVTVSS VL: DIVMTQSPATLSVTPGDRVSLSCRASQSISDYLHWYQQKSHESPRLLIKYASQSISGIPSRFSGSGSGSDFTLSINSVEPEDVGVYYCQNGHSFPYTFGGGTKLEIKR",binding,[1],binds
same,binding,[3],binds
"LK-RB2-2.h1 (antibody, human IgG4, kappa, V domains shown) VH: EVQLVESGGGLVKPGGSLRLSCAASGFTFSSYAMSWVRQAPGKGLEWVSYISSGGDYFHYADTVKGRFTISRDNAKNSLYLQMNSLRAEDTAVYYCAREGAHYDSSYLAWFAHWGQGTLVTVSS VL: DIQMTQSPSSVSASVGDRVTITCRASENIYSNLAWYQQKPGKAPKLLIYAATNLAEGVPSRFSGSGSGTDYTLTISSLQPEDFATYYCQQFWDNPLTFGQGTKLEIKR",binding,[4],binds
same,binding,[1],binds
same,binding,[2],binds
same,binding,[5],binds
"LK-RB1-9.h1 (antibody, human IgG4, kappa, V domains shown) VH: QVQLVQSGSELKKPGASVKVSCKASGYTFTTYGMSWVRQAPGQGLEWMGWINTYSGVPTYADDFKGRFVFSLDTSVSTAYLQISSLKAEDTAVYYCARRRRTYHGYLSFDYWGQGTTVTVSS VL: DIQMTQSPSSLSASVGDRVTITCETSENIYGALNWYQQKPGKAPKLLIYGATNLAEGVPSRFSGSGSGTDFTFTISSLQPEDIATYYCQNVLNTPWTFGGGTKLEIKR",binding,[6],binds
"LK-RB1-16.h3 (antibody, human IgG4, kappa, V domains shown) VH: QVQLQESGPGLVKPSETLSLTCTVSGFSLISNAISWIRQPPGKGLEWLGVIWGDGNTIYHSALRSRLTISKDTSKNQVFLKLSSVTAADTAVYYCAKANWDGYYFDYWGQGTTVTVSS VL: DIQMTQSPSTLSASVGDRVTITCHASQSVDFWLNWYQQKPGKAPKLLISKASNLHTGVPSRFSGSGSGTEFTLTISSLQPDDFATYYCQQGQSYPLTFGQGTKLEIKR",binding,[6],binds
"LK-RB1-5 (antibody, human IgG4 S228P, kappa, V domains shown) VH: QVQLQQPGAELVKPGASVKLSCKASGYTFTDFWIHWVKQRPGQGLEWIGMIHPNSGSTNFNEKFRAKATLTVDKSSSTAYMRLSSLTSEDSAVYYCARSGDGYSNPMDYWGQGTSVTVSS VL: QIVLSQSPAILSASPGEKVTLTCRASSSVSYMHWYQQKPGSSPKPWIYATSNLASGVPVRFSGSGSGTSYSLTISRMQTEDAATYYCQQWRRSPYTFGGGTKLEIKR",binding,human LILRA6 (human),binds
"LK-RB1-6 (antibody, human IgG4 S228P, kappa, V domains shown) VH: QIQLVQSGPELKKPGETVKISCKASGYTFTTYGMSWVKQAPGKDLKWMGWINTFSGVPACADDFQGRFDFSAEPSDSTAHLQINNLKNEDTATYFCARRSYYGSRGWYFDVWGTGTTVTVSS VL: DIVMTQSHKFMSTSVGDRVSITCTASEDVNTAVAWYQQKPGQSPKLLIYWASTRHTGVPDRFTGSGSGTDYTLTISSVQTEDLALYYCQQHYNTPYTFGGGTKLEIKR",binding,human LILRA3 (human),binds
same,binding,human LILRA2 (human),binds
"LK-RB1-7 (antibody, human IgG4 S228P, kappa, V domains shown) VH: QIQLVQSGPELKKPGETVKISCKASGYTFTTYGMSWVKQAPGKDLKWMGWINTFSGVPACADDFQGRFDFSAEPSDSTAHLQINNLKNEDTATYFCARRSYYGSRGWYFDVWGTGTTVTVSS VL: DVQMIQSPSSLSASLGDIVTMTCQASQDTTINLNWFQQKPGKVPKLLIYGASNLEDGVPSRFSGSSFGTDFTLTISSLEDEDMATYFCLQHTYLPRTFGGGTKLEIRR",binding,human LILRA3 (human),binds
same,binding,human LILRA4 (human),binds
same,binding,human LILRA2 (human),binds
"J19.h1 (antibody, human IgG4 S228P, kappa, V domains shown) VH: QITLKESGPTLVKPTQTLTLTCTFSGFSLNTYAMGVSWIRQPPGKALEWLASIWWNGNKYNNPSLKSRLTVTKDTSKNQVVLTMTNMDPVDTATYYCAHSRIIRFTDYVMDAWGQGTLVTVSS VL: DIQMTQSPSSLSTSVGDRVTITCRASEDIYNDLAWYQQKPGKAPKLLIYNANSLHTGVASRFSGSGSGTDFTFTISSLQPEDVATYFCQQYYDYPLTFGQGTKLEIKR",binding,[5],binds
"hz73D1.v1 (antibody, human IgG4 S228P, kappa, V domains shown) VH: QVQLVQSGAEVKKPGASVKVSCKASGYTFTDYYINWVRQAPGQGLEWMGNVNPNDGGTTYNQKFKGRVTMTTDTSTSTAYMELRSLRSDDTAVYYCARREIYFYGTIYYYAMDYWGQGTLVTVSS VL: DIQLTQSPSFLSASVGDRVTITCRASESVDYYGNSFMYWYQQKPGKAPKLLIYFASNLESGVPSRFSGSGSGTEFTLTISSLQPEDFATYYCQQNNEDPWTFGGGTKVEIKR",binding,[5],binds
"LK-RB1-9 (antibody, human IgG4 S228P, kappa, V domains shown) VH: QIQLVQSGPELKKPGETVKISCTASGYTFTTYGMSWVKQAPGKGLKWMGWINTYSGVPTYADDFKGRFAFSLETSASTAYLEINNVKNEDTATYFCARRRRTYHGYLCFDYWGQGTTLTVSS VL: DIQMTQSPVSLSASVGETVTITCETSENIYGALNWYQRKQGKSPQLLIYGATNLADGMSSRFSGSGSGRQYSLEISSLHPDDVASYYCQNVLNTPWTFGGGTKLEIKR",binding,[3],binds
"LK-RB2-32 (antibody, human IgG4 S228P, kappa, V domains shown) VH: DVQLQESGPGLVKPSQSLSLTCSVTGYSITSGYYWNWIRQFPGNKLEWMGYISFDGSNHYNPSLRNRISITRDTFKNQFFLKLNSVTTEDTATFYCTRRDYNWFAYWGQGTLVTVSA VL: DIVLTQSPVTLSVTPGDSVSLSCRASQNINKNLHWYQQRSHESPRLLIKYVSQSISGIPSRFSGSGSGTDFTLSINSVETEDFGMYFCQQSNSWPLTFGAGTKLELRR",binding,[3],binds

# From US20260234247A1
